Laboratory results published in PMC5715026.

Protein sequences, listed by entry. Tags and fused reporters are not part of them.
UniProt O70126: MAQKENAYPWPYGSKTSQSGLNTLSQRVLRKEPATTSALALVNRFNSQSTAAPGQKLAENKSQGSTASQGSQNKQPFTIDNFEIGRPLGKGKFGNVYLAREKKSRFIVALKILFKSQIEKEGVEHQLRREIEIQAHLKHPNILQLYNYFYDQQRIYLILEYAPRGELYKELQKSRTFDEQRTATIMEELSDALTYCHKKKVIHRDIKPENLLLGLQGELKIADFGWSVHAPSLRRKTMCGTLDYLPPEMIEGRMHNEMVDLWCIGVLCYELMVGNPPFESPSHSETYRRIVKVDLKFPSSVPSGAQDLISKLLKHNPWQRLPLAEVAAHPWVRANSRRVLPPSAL

B1: MKLP1 (endogenous, IMCD cells) (protein, UniProt E9Q5G3 1-953)
chain: MKSAKAKTVRKPVIKKGSQTNLKDPVGVYCRVRPLSFPDQECCVEVINSTTLQLHTPEGYRLNRNGDYKETQYSFKRVFGTHTTQKELFDVVANPLVDDLIHGKNGLLFTYGVTGSGKTYTMTGSPGSGGLLPRCLNMIFNSIGSFQAKRYVFKSNDRNSMEIQCEVDALLERQKREALPIPKTPSSKRQADPEFADMINVQEFCKAEEVDEDSVYGVFVSYIEIYNNYIYDLLEEVQFDPIKPKLPQSKTLREDKNHNMYVAGCTEVEVKSTEEAFEVFWRGQKKRRIANTHLNRESSRSHSVFSIKLVQAPLDADGDNVLQEKEQITISQLSLVDLAGSERTNRTKAEGNRLREAGNINQSLMTLRTCMEVLRENQTYGTNKMVPYRDSKLTHLFKNYFDGEGKVRMIVCVNPKAEDYEESLQVMRFAEVTQEVEVARPVDKVICGLTPGRRYRNLPRGGPVGDEPLVPEVILQSFPPLPPCKLLDINDEETLPKLADTLEKRHHLRQLMTEDLNKKCLAFKALLKEFDNSLSNKENYVQEKLNEREKVISGQKLEIERLEKKNKTLEYKIEILEKTTTIYEEDKRNLQQELESQNQKLQRQFSDKRRLEARLQGMVTETSMKWQKECERRVAATQLEMQNKLWVKDEKLKQLKAIVTEPKPEKPERPSRERDREKIIPRSVSPSPLPLSSNNIAQISNGQQLMSQPQLHRRSNSCSSISVASCISEWEQKLSPFSTPVNVTSLARHRQQEPGQSKTCIVSDRRRGMCWTEGREMVPTFSSEIGVEEDHCRRNTPIPVRHRRSRSAGSRWVDHKPASNVQTETVMQPHVPHAITVSVANEKALAKCEKYMLTHQELASDGEIQTKVIKGDVYKTRGGGQSVQFTDIETLKQELPTGSRKRRSSTLAPAQPDGTESEWTDVETRCSVAVEMRAGSQLGPGYQHHAQPKRKKP
B2: MgcRacGAP (endogenous, IMCD cells) (protein, UniProt Q9WVM1 1-628)
chain: MDTTMVNLWTLFEQLVRRMEIINEGNESIEFIQVVKDFEDFRKKYQRTNQELEKFKDLLLKAETGRSALDVKLKHARNQVDVEIKRRQRAEAECAKLEQQIQLIRDILMCDTSGSIQLSEEQKSALAFLNRGQASSGHAGNNRLSTIDESGSILSDISFDKTDESLDWDSSLVKNFKMKKREKRRSNSRQFIDGPPGPVKKTCSIGSTVDQANESIVAKTTVTVPSDGGPIEAVSTIETLPSWTRSRGKSGPLQPVNSDSALNSRPLEPRTDTDNLGTPQNTGGMRLHDFVSKTVIKPESCVPCGKRIKFGKLSLKCRDCRLVSHPECRDRCPLPCIPPLVGTPVKIGEGMLADFVSQASPMIPAIVVSCVNEIEQRGLTEAGLYRISGCDRTVKELKEKFLKVKTVPLLSKVDDIHVICSLLKDFLRNLKEPLLTFWLSKAFMEAAEITDEDNSTAAMYQAVSELPQANRDTLAFLMIHLQRVSQSPDTKMDIANLAKVFGPTIVAHTVPNPDPVTMFQDIKRQLKVVERLLSLPLEYWNQFMMVDQENIDSQRGNGNSTPRTPDVKVSLLGPVTTPEFQLVKTPLSSSLSQRLYNLSKSTPRFGNKSKSATNLGQQGKFFPAPYLK

Tests used:
[1] = target: T1, FLAG-tagged IFT27 (stably expressed in IMCD cells) (UniProt Q9D0P8); assay: affinity purification with mass spectrometry; lysates (20 mg) of IMCD cells stably expressing FLAG-IFT27, synchronized in mitosis (RO-3306, 1 h release); Flag M2 agarose 3 h at 4 °C, FLAG peptide elution, LTQ-Orbitrap XL
T1 sequence: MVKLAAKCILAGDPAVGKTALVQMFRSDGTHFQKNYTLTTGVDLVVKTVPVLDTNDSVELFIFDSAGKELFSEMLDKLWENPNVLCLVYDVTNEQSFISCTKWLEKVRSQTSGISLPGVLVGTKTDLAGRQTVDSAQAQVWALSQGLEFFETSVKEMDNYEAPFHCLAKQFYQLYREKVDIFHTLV

[2] = target: T1, FLAG-tagged IFT27 (stably expressed in IMCD cells); assay: as above; remark: listed apart in the source

Molecule | binding [1] | binding [2]
Aurora B (endogenous, IMCD cells) (from UniProt O70126 1-345) (enzyme) | binds | –
B1 | – | binds
B2 | – | binds

Like-named read-outs stand apart in the source and are kept apart here. These are yes or no findings as the source states them, for the method shown. Binding seen in cells or lysates may run through a third protein. A yes stands for co-enrichment or nearness to the bait. Other partners may have been found. Tags and fused reporters may be left off the sequences shown.
